What all share (settings): yeast three-hybrid, YBZ-1, SC-Leu-His + 0.5 mM 3-AT, 4 days
Assay [1] addresses T1, PUM1 PUF domain R1-QFR R2-VFQ R7-NPG S863Q + R864F + Q867R + N899V + Y900F + S1079N + N1080P + E1083G (UniProt Q14671).
T1 sequence: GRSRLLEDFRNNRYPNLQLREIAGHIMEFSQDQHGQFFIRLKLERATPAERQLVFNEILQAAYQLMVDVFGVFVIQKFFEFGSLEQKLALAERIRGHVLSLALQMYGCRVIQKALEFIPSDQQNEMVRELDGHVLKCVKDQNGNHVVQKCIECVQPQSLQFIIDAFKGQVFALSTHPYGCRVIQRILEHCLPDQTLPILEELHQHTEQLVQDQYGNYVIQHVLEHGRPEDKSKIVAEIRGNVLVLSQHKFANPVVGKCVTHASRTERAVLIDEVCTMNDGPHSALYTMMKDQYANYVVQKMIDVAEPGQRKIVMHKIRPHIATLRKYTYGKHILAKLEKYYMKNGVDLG

Assay [2] concerns the target T2, PUM1 PUF domain R2-VFQ R3-THE R4-TFR N899V + Y900F + C935T + R936H + Q939E + N971T + H972F + Q975R (UniProt Q14671).
T2 sequence: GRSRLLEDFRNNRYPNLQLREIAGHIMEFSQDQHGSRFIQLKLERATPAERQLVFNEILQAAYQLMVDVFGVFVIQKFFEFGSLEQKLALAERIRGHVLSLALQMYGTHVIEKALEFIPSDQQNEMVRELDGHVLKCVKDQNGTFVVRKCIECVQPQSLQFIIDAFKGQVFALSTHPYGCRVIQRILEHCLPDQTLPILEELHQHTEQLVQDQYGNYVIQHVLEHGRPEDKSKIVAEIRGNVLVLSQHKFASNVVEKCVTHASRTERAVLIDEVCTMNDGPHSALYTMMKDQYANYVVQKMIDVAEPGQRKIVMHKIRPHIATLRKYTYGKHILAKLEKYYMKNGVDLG

Assay [3] concerns the target T3, PUM1 PUF domain R3-THE R4-TFR C935T + R936H + Q939E + N971T + H972F + Q975R (UniProt Q14671).
T3 sequence: T2 sequence with V72N, F73Y

Assay [4] concerns the target T4, PUM1 PUF domain R3-THE R4-TFR R7-NPG C935T + R936H + Q939E + N971T + H972F + Q975R + S1079N + N1080P + E1083G (Homo sapiens) (UniProt Q14671).
T4 sequence: T2 sequence with V72N, F73Y, S252N, N253P, E256G

For assay [5], the target named is T5, PUM1 PUF domain R5-PHQ R6-SWD C1007P + R1008H + N1043S + Y1044W + Q1047D (UniProt Q14671).
T5 sequence: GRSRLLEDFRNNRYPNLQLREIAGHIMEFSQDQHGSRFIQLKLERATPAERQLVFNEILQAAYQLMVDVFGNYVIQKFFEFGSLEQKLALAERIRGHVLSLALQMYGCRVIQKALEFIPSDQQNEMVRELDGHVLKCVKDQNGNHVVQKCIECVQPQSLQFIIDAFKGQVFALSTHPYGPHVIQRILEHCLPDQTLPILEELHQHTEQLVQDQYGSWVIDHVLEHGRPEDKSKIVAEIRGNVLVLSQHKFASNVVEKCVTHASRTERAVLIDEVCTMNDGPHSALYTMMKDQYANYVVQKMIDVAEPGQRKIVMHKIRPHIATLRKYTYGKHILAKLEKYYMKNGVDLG

The target of assay [6] is T6, PUM1 PUF domain R3-THE R4-TFR C935T + R936H + Q939E + N971T + H972F + Q975R (Homo sapiens) (UniProt Q14671).
T6 sequence: T2 sequence with V72N, F73Y

The target in assay [7] is T7, PUM1 PUF domain R6-SWD R7-NPG N1043S + Y1044W + Q1047D + S1079N + N1080P + E1083G (Homo sapiens) (UniProt Q14671).
T7 sequence: T5 sequence with P180C, H181R, S252N, N253P, E256G

Assay [8] has as its target T8, PUM1 PUF domain R3-THE R4-TFR R7-NPG C935T + R936H + Q939E + N971T + H972F + Q975R + S1079N + N1080P + E1083G (UniProt Q14671).
T8 sequence: T2 sequence with V72N, F73Y, S252N, N253P, E256G

In publication PMC8384837 one finds binding signal (log2 enrichment (interaction score)) data, which are given here for 21 sequences.

Substitutions are numbered along the chain they refer to. The list shows a part of the results. For some of these results: At the low end of the ranking, values are background and their order means little. For some of these results: The source does not settle which construct or isoform was used. A value given as a limit tells only on which side of the number the result lay.

Take “GGCUAGAACUAGUGGAUCCCCCGGCGCCCGGCGGCUCGAGCCCGGGUAAGUUUACGUGGUCUGCAUGCCGCCGGGCGCCAUGCCUGCAGGUCGACUCUAGAAAACAUG”: the values for the binding signal (log2 enrichment (interaction score)) in assay [1], in assay [2] and in assay [3] were -5.82, -5.49 and -6.63, respectively.

“GGCUAGAACUAGUGGAUCCCCCGGCGCCCGGCGGCUCGAGCCCGGGUAAGUGGAAAUUGUCUGCAUGCCGCCGGGCGCCAUGCCUGCAGGUCGACUCUAGAAAACAUG”: the binding signal (log2 enrichment (interaction score)) in assay [1] was -3.11; in assay [2] it was less than -5.77; in assay [3] it was -7.84; in assay [4] it was -1.28; in assay [5], -2.12.

For the sequence “GGCUAGAACUAGUGGAUCCCCCGGCGCCCGGCGGCUCGAGCCCGGGUAAGUGUACAUAGUCUGCAUGCCGCCGGGCGCCAUGCCUGCAGGUCGACUCUAGAAAACAUG”, the binding signal (log2 enrichment (interaction score)) in assay [1] was -6.11; in assay [2], -5.5; in assay [6], 0.16; in assay [5] it was -7.84; in assay [7] it was -0.91.

“GGCUAGAACUAGUGGAUCCCCCGGCGCCCGGCGGCUCGAGCCCGGGUAAGUCCAAGUAGUCUGCAUGCCGCCGGGCGCCAUGCCUGCAGGUCGACUCUAGAAAACAUG”: the binding signal (log2 enrichment (interaction score)) was less than -6.03 in assay [1], -6.53 in assay [2] and -7.17 in assay [3].

As for “GGCUAGAACUAGUGGAUCCCCCGGCGCCCGGCGGCUCGAGCCCGGGUAAGUAUCCGUAGUCUGCAUGCCGCCGGGCGCCAUGCCUGCAGGUCGACUCUAGAAAACAUG”, the binding signal (log2 enrichment (interaction score)) is -5.44 in assay [1], -5.77 in assay [2], -6.87 in assay [3] and -1.1 in assay [4].

As for “GGCUAGAACUAGUGGAUCCCCCGGCGCCCGGCGGCUCGAGCCCGGGUAAGAUGUCUUAGUCUGCAUGCCGCCGGGCGCCAUGCCUGCAGGUCGACUCUAGAAAACAUG”, the binding signal (log2 enrichment (interaction score)) in assay [1] is -6.39; in assay [2] it was -5.62; in assay [3] it was -7.89; in assay [4] it was -1.74.

Regarding “GGCUAGAACUAGUGGAUCCCCCGGCGCCCGGCGGCUCGAGCCCGGGUAAGUUGCCGAAGUCUGCAUGCCGCCGGGCGCCAUGCCUGCAGGUCGACUCUAGAAAACAUG”, the binding signal (log2 enrichment (interaction score)) in assay [1] was -4.1; in assay [2] it was -5.35; in assay [3] it was -6.23; in assay [4], -0.86.

Turning to “GGCUAGAACUAGUGGAUCCCCCGGCGCCCGGCGGCUCGAGCCCGGGUAAGUUUUAGUAGUCUGCAUGCCGCCGGGCGCCAUGCCUGCAGGUCGACUCUAGAAAACAUG”, the binding signal (log2 enrichment (interaction score)) in assay [1] was -5.47; in assay [2], less than -6; in assay [3], -7.83; in assay [4], -1.78; in assay [5], -7.6.

Take “GGCUAGAACUAGUGGAUCCCCCGGCGCCCGGCGGCUCGAGCCCGGGUAAGUAGACAUAGUCUGCAUGCCGCCGGGCGCCAUGCCUGCAGGUCGACUCUAGAAAACAUG”: the binding signal (log2 enrichment (interaction score)) in assay [1] is -5.55; in assay [2], -5.92; in assay [3] it was less than -7.57.

For “GGCUAGAACUAGUGGAUCCCCCGGCGCCCGGCGGCUCGAGCCCGGGUAAGUGUGUCCAGUCUGCAUGCCGCCGGGCGCCAUGCCUGCAGGUCGACUCUAGAAAACAUG”, the results for the binding signal (log2 enrichment (interaction score)) in assay [1], in assay [2] and in assay [3] were -5.44, -5.19 and -6.66, respectively.

For the sequence “GGCUAGAACUAGUGGAUCCCCCGGCGCCCGGCGGCUCGAGCCCGGGUAAGGUUGAGAAGUCUGCAUGCCGCCGGGCGCCAUGCCUGCAGGUCGACUCUAGAAAACAUG”, the binding signal (log2 enrichment (interaction score)) was -6.01 in assay [1], -5.36 in assay [2] and -6.44 in assay [3].

For “GGCUAGAACUAGUGGAUCCCCCGGCGCCCGGCGGCUCGAGCCCGGGUAAGAUGACUUAGUCUGCAUGCCGCCGGGCGCCAUGCCUGCAGGUCGACUCUAGAAAACAUG”, the binding signal (log2 enrichment (interaction score)) in assay [1] was -2.06; in assay [2], -4.35; in assay [3] it was less than -6.53.

Turning to “GGCUAGAACUAGUGGAUCCCCCGGCGCCCGGCGGCUCGAGCCCGGGUAAGUAUCCGUCGUCUGCAUGCCGCCGGGCGCCAUGCCUGCAGGUCGACUCUAGAAAACAUG”, the binding signal (log2 enrichment (interaction score)) in assay [1] was -4.37; in assay [2] it was -4.99; in assay [3], -6.73.

As to “GGCUAGAACUAGUGGAUCCCCCGGCGCCCGGCGGCUCGAGCCCGGGUAAGGAUAGCUAGUCUGCAUGCCGCCGGGCGCCAUGCCUGCAGGUCGACUCUAGAAAACAUG”, the results for the binding signal (log2 enrichment (interaction score)) in assay [1], in assay [2] and in assay [3] were -5.94, -5.58 and -7.27, respectively.

With “GGCUAGAACUAGUGGAUCCCCCGGCGCCCGGCGGCUCGAGCCCGGGUAAGUGGACUGAGUCUGCAUGCCGCCGGGCGCCAUGCCUGCAGGUCGACUCUAGAAAACAUG”, the binding signal (log2 enrichment (interaction score)) in assay [1] is -4.32; in assay [2], -5.85; in assay [3] it was -7.05; in assay [4] it was less than -1.81; in assay [5] it was -7.01.

On to “GGCUAGAACUAGUGGAUCCCCCGGCGCCCGGCGGCUCGAGCCCGGGUAAGUUGACGAAGUCUGCAUGCCGCCGGGCGCCAUGCCUGCAGGUCGACUCUAGAAAACAUG”, for which the binding signal (log2 enrichment (interaction score)) is -5.72 in assay [1]; -4.92 in assay [2]; -6.93 in assay [3]; -2.25 in assay [8]; -8 in assay [5].

For the sequence “GGCUAGAACUAGUGGAUCCCCCGGCGCCCGGCGGCUCGAGCCCGGGUAAGUUUCCGUAGUCUGCAUGCCGCCGGGCGCCAUGCCUGCAGGUCGACUCUAGAAAACAUG”, the binding signal (log2 enrichment (interaction score)) in assay [1] was -7.06; in assay [2], -6.42; in assay [3], -6.74; in assay [4] it was -1.5.

On to “GGCUAGAACUAGUGGAUCCCCCGGCGCCCGGCGGCUCGAGCCCGGGUAAGUUGAAAAAGUCUGCAUGCCGCCGGGCGCCAUGCCUGCAGGUCGACUCUAGAAAACAUG”, for which the binding signal (log2 enrichment (interaction score)) in assay [1] is -4.41; in assay [2] it was -5.62; in assay [8], -2.32; in assay [5] it was -7.78; in assay [7], -1.03.

For the sequence “GGCUAGAACUAGUGGAUCCCCCGGCGCCCGGCGGCUCGAGCCCGGGUAAGAUUAAGGUGUCUGCAUGCCGCCGGGCGCCAUGCCUGCAGGUCGACUCUAGAAAACAUG”, the figures for the binding signal (log2 enrichment (interaction score)) in assay [1], in assay [2] and in assay [3] were -5.24, -5.54 and -6.27, respectively.

For the sequence “GGCUAGAACUAGUGGAUCCCCCGGCGCCCGGCGGCUCGAGCCCGGGUAAGGUAAAGAAGUCUGCAUGCCGCCGGGCGCCAUGCCUGCAGGUCGACUCUAGAAAACAUG”, the binding signal (log2 enrichment (interaction score)) in assay [1] is -5.36; in assay [2], -6.45; in assay [3] it was -5.77; in assay [4], -0.94.

Consider “GGCUAGAACUAGUGGAUCCCCCGGCGCCCGGCGGCUCGAGCCCGGGUAAGUUGAAGAAGUCUGCAUGCCGCCGGGCGCCAUGCCUGCAGGUCGACUCUAGAAAACAUG”, for which the binding signal (log2 enrichment (interaction score)) in assay [1] is -5.92; in assay [2], -5.49; in assay [3] it was -7.77; in assay [4], -1.34; in assay [5], -9.51.
